The text below walks through data of doi:10.1101/2021.07.07.451439.

By UniProt entry, the sequences of proteins in these tests, tags left out.
UniProt P51784: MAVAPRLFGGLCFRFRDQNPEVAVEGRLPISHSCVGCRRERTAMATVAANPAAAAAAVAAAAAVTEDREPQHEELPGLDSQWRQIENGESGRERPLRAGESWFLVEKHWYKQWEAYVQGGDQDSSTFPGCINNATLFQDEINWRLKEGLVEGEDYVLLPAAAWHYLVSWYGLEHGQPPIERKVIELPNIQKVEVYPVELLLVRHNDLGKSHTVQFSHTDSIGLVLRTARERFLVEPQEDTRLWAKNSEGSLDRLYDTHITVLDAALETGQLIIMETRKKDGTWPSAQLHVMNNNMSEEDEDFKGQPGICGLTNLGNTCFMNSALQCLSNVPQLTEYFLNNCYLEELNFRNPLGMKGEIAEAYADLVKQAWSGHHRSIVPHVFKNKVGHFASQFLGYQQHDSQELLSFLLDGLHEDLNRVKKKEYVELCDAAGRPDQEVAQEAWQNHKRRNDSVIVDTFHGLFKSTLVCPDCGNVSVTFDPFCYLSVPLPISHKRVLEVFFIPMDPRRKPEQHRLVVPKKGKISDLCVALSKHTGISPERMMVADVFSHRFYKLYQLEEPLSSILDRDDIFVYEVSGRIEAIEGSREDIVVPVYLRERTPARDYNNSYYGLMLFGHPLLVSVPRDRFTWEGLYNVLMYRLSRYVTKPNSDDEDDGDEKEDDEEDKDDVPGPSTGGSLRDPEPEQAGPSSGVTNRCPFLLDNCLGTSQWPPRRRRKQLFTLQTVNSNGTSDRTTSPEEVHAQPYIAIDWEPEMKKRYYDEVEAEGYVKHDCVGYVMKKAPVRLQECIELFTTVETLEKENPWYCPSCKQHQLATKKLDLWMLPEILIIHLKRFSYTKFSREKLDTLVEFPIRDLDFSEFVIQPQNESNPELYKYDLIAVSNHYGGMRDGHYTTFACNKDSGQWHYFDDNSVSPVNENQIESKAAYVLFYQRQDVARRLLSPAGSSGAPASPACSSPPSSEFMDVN
UniProt Q96EI5: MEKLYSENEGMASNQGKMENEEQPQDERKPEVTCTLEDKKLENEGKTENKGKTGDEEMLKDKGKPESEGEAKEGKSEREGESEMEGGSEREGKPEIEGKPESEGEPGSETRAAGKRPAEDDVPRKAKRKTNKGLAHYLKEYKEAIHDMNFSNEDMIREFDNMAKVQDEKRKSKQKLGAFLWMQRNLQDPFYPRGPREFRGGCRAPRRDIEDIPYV
UniProt Q15170: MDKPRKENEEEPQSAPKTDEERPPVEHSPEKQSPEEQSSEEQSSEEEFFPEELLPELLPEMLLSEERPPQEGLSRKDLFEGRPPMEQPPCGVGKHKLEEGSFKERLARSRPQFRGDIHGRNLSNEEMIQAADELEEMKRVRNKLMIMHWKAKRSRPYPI

Results are given in words; binding and its absence hold for the method and conditions named. Binding seen in cells or lysates may run through a third protein. Some binding calls cover weakened binding; strength is not graded here.

Assay [1] concerns the target USP11 (endogenous) (human (endogenous in U2OS and HCT116)) (UniProt P51784). The experiment in a line: co-IP.
Assay [2] deals with GFP-TCEAL4 WT isoform-1 (human) (UniProt Q96EI5). The assay is described as follows: co-IP.

As to “TCEAL1 (endogenous) (from UniProt Q15170 1-159)”, the binding result in assay [1] and in assay [2] was “binds” each time.
